From PMC7143582, “Functional Characterization of Sex Pheromone Receptors in the Fall Armyworm (Spodoptera frugiperda)” (Insects, 2020)
No dose or concentration is given here for some results.

Test system: T1, SfruOR13
T1 construct: gene OR13; full-length ORF; with SfruORco
Experiment: two-electrode voltage clamp, Xenopus oocytes co-expressing SfruOR13/ORco, […] screening
Assay type: cell-based, Spodoptera frugiperda

Compound	two-electrode voltage clamp, Xenopus oocytes co-expressing SfruOR13/ORco, 10^-4
C/C=C/C/C=C\CCCCCCCCOC(C)=O [Z9,E12-14:OAc, (Z, E)-9, 12-tetradecadienyl acetate]	205 nA
CC/C=C\CCCCCCCCOC(C)=O [Z9-12:OAc]	106 nA
